No constants are given. Whether binding was seen depends on the method and setting. For some of these results: In cells and extracts the contact can be indirect. Some entries that bind do so weakly or less than the wild type. For some of these results: Tags and fused reporters may be left off the sequences shown.
Legend:
[1] = biological target: T1, FLAG-tagged NHP2 (Sf9) (human) (UniProt Q9NX24); assay: co-purification of co-expressed subunits (tandem affinity); Sf9 cells co-expressing His6-DKC1 (wild type or mutant), GAR1, FLAG-NHP2, NOP10 (wild type or R34W); Ni-NTA, Heparin Sepharose (1 M NaCl eluate), anti-FLAG agarose, mock or MNase treated, washed with 0.6 M NaCl, FLAG peptide elution; silver or Coomassie stain
T1 sequence: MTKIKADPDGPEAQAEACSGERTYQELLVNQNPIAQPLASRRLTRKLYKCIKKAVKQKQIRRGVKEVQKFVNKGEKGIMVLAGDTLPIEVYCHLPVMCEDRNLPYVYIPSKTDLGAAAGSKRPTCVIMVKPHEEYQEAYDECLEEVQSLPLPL

[2] = biological target: T2, FLAG-tagged NHP2 (E. coli) (human) (UniProt Q9NX24); assay: co-purification of co-expressed subunits (tandem affinity); E. coli co-expressing untagged DKC1, FLAG-NHP2 and NOP10-His6 (heterotrimer); Ni-NTA, Poros Heparin, anti-FLAG agarose, washed at 0.7 M NaCl, FLAG peptide elution; silver stain
T2 sequence: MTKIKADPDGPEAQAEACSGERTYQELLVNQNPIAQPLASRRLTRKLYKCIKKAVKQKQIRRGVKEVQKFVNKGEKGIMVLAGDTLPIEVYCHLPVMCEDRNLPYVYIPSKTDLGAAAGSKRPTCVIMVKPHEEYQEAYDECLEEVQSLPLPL

[3] = biological target: T2, FLAG-tagged NHP2 (E. coli) (human); assay: co-purification of co-expressed subunits (tandem affinity); E. coli co-expressing untagged DKC1, HA-NAF1, FLAG-NHP2 and NOP10-His6 (NAF1 intermediate); Ni-NTA, Poros Heparin, anti-HA resin with HA peptide elution, anti-FLAG agarose with FLAG peptide elution; silver stain
[4] = biological target: T3, HA-tagged NAF1 (E. coli) (UniProt Q96HR8); assay: as above
T3 sequence: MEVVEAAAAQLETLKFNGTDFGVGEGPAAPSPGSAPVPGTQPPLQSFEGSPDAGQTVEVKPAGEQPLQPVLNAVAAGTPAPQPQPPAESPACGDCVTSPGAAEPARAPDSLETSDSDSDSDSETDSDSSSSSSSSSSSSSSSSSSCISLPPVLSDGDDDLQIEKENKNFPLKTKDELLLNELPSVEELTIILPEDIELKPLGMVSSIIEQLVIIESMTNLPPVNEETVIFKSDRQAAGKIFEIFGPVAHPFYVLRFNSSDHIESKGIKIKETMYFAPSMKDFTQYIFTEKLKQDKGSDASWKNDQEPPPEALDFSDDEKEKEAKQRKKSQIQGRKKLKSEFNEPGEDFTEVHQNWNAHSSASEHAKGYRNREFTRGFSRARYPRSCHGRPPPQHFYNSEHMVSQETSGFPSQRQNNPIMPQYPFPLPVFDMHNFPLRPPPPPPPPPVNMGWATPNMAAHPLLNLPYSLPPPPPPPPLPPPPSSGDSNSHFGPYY

[5] = biological target: T2, FLAG-tagged NHP2 (E. coli) (human); assay: co-purification of co-expressed subunits (tandem affinity); E. coli co-expressing untagged DKC1, HA-GAR1, FLAG-NHP2 and NOP10-His6 (holo complex); Ni-NTA, Poros Heparin, anti-HA resin with HA peptide elution, anti-FLAG agarose with FLAG peptide elution; silver stain; no detectable RNA
[6] = biological target: T4, His6-tagged NOP10 (E. coli) (human) (UniProt Q9NPE3); assay: as above
T4 sequence: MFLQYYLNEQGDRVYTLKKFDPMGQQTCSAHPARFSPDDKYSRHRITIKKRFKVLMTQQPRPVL

[7] = biological target: T4, His6-tagged NOP10 (E. coli) (human); assay: co-purification of co-expressed subunits (tandem affinity); E. coli co-expressing untagged DKC1, HA-NAF1, FLAG-NHP2 and NOP10-His6 (NAF1 intermediate); Ni-NTA, Poros Heparin, anti-HA resin with HA peptide elution, anti-FLAG agarose with FLAG peptide elution; silver stain
[8] = biological target: T5, dyskerin (DKC1) (human (endogenous in NT2)) (UniProt O60832); assay: co-IP; Poros-HQ fractions of NT2 Ni-FT incubated 16 hr with anti-DKC1 monoclonal antibody on Protein G Sepharose, washed with 0.6 M KCl HEMG 0.2% NP-40, peptide elution; silver stain
T5 sequence: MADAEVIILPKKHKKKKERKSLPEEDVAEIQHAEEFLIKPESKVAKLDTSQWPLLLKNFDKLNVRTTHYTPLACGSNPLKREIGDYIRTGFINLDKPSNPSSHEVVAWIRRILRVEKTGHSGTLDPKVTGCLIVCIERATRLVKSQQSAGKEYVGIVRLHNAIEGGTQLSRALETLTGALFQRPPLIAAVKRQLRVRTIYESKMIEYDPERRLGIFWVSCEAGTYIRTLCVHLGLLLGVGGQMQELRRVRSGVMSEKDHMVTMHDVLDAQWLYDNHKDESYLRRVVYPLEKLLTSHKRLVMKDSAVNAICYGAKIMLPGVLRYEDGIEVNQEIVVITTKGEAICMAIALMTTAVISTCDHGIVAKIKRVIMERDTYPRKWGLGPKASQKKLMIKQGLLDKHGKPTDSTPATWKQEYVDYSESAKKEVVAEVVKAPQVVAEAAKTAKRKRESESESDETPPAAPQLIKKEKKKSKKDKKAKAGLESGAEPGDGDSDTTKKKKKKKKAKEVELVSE

B1: untagged GAR1 (Sf9) (protein, UniProt Q9NY12 1-217)
chain: MSFRGGGRGGFNRGGGGGGFNRGGSSNHFRGGGGGGGGGNFRGGGRGGFGRGGGRGGFNKGQDQGPPERVVLLGEFLHPCEDDIVCKCTTDENKVPYFNAPVYLENKEQIGKVDEIFGQLRDFYFSVKLSENMKASSFKKLQKFYIDPYKLLPLQRFLPRPPGEKGPPRGGGRGGRGGGRGGGGRGGGRGGGFRGGRGGGGGGFRGGRGGGFRGRGH
For B1, the binding [1] was “binds”.

B2: untagged human DKC1 (E. coli) (protein, UniProt O60832 1-514)
chain: MADAEVIILPKKHKKKKERKSLPEEDVAEIQHAEEFLIKPESKVAKLDTSQWPLLLKNFDKLNVRTTHYTPLACGSNPLKREIGDYIRTGFINLDKPSNPSSHEVVAWIRRILRVEKTGHSGTLDPKVTGCLIVCIERATRLVKSQQSAGKEYVGIVRLHNAIEGGTQLSRALETLTGALFQRPPLIAAVKRQLRVRTIYESKMIEYDPERRLGIFWVSCEAGTYIRTLCVHLGLLLGVGGQMQELRRVRSGVMSEKDHMVTMHDVLDAQWLYDNHKDESYLRRVVYPLEKLLTSHKRLVMKDSAVNAICYGAKIMLPGVLRYEDGIEVNQEIVVITTKGEAICMAIALMTTAVISTCDHGIVAKIKRVIMERDTYPRKWGLGPKASQKKLMIKQGLLDKHGKPTDSTPATWKQEYVDYSESAKKEVVAEVVKAPQVVAEAAKTAKRKRESESESDETPPAAPQLIKKEKKKSKKDKKAKAGLESGAEPGDGDSDTTKKKKKKKKAKEVELVSE
For B2, the binding [2] was “binds”, the binding [3] was “binds” and the binding [4] was “binds”. For the same binder, the binding [5] was “binds”.

B3: HA-tagged GAR1 (E. coli) (protein, UniProt Q9NY12 1-217)
chain: MSFRGGGRGGFNRGGGGGGFNRGGSSNHFRGGGGGGGGGNFRGGGRGGFGRGGGRGGFNKGQDQGPPERVVLLGEFLHPCEDDIVCKCTTDENKVPYFNAPVYLENKEQIGKVDEIFGQLRDFYFSVKLSENMKASSFKKLQKFYIDPYKLLPLQRFLPRPPGEKGPPRGGGRGGRGGGRGGGGRGGGRGGGFRGGRGGGGGGFRGGRGGGFRGRGH
In the case of B3, the binding [5] is reported as “binds” and the binding [6] is reported as “binds”.

B4: HA-tagged NAF1 (E. coli) (protein, UniProt Q96HR8 1-494)
chain: MEVVEAAAAQLETLKFNGTDFGVGEGPAAPSPGSAPVPGTQPPLQSFEGSPDAGQTVEVKPAGEQPLQPVLNAVAAGTPAPQPQPPAESPACGDCVTSPGAAEPARAPDSLETSDSDSDSDSETDSDSSSSSSSSSSSSSSSSSSCISLPPVLSDGDDDLQIEKENKNFPLKTKDELLLNELPSVEELTIILPEDIELKPLGMVSSIIEQLVIIESMTNLPPVNEETVIFKSDRQAAGKIFEIFGPVAHPFYVLRFNSSDHIESKGIKIKETMYFAPSMKDFTQYIFTEKLKQDKGSDASWKNDQEPPPEALDFSDDEKEKEAKQRKKSQIQGRKKLKSEFNEPGEDFTEVHQNWNAHSSASEHAKGYRNREFTRGFSRARYPRSCHGRPPPQHFYNSEHMVSQETSGFPSQRQNNPIMPQYPFPLPVFDMHNFPLRPPPPPPPPPVNMGWATPNMAAHPLLNLPYSLPPPPPPPPLPPPPSSGDSNSHFGPYY
For B4, the binding [3] was “binds” and the binding [7] was “binds”.

B5: NHP2 (protein, UniProt Q9NX24 1-153)
chain: MTKIKADPDGPEAQAEACSGERTYQELLVNQNPIAQPLASRRLTRKLYKCIKKAVKQKQIRRGVKEVQKFVNKGEKGIMVLAGDTLPIEVYCHLPVMCEDRNLPYVYIPSKTDLGAAAGSKRPTCVIMVKPHEEYQEAYDECLEEVQSLPLPL
With B5 the binding [8] was “binds”.
